Results are given in words; binding and its absence hold for the method and conditions named. In cells and extracts the contact can be indirect. Here binding means that the protein was enriched with, or labelled near, the bait; the list need not be complete.
Target: T1, Kin17 (endogenous, mouse) (mouse (endogenous in neurospheres and cortex)) (UniProt Q8K339)
T1 sequence: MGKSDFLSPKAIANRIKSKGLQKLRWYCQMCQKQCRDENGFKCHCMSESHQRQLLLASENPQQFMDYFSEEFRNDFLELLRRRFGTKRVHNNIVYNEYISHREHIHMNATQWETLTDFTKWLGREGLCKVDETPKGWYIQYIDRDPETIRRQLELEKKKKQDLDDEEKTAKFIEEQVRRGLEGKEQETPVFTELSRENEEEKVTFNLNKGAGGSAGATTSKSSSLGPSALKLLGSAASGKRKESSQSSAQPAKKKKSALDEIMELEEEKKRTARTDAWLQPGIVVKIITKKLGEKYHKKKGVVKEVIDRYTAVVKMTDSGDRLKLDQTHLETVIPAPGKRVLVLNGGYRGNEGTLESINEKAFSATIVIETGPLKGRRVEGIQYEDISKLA
Test: affinity purification with mass spectrometry; immunoprecipitation of Kin17 from cultured mouse neurospheres; SDS-PAGE, silver staining, bound proteins analysed by mass spectrometry

Sequences of proteins named here, by UniProt entry; tags and fusion partners are left off.
UniProt P09405: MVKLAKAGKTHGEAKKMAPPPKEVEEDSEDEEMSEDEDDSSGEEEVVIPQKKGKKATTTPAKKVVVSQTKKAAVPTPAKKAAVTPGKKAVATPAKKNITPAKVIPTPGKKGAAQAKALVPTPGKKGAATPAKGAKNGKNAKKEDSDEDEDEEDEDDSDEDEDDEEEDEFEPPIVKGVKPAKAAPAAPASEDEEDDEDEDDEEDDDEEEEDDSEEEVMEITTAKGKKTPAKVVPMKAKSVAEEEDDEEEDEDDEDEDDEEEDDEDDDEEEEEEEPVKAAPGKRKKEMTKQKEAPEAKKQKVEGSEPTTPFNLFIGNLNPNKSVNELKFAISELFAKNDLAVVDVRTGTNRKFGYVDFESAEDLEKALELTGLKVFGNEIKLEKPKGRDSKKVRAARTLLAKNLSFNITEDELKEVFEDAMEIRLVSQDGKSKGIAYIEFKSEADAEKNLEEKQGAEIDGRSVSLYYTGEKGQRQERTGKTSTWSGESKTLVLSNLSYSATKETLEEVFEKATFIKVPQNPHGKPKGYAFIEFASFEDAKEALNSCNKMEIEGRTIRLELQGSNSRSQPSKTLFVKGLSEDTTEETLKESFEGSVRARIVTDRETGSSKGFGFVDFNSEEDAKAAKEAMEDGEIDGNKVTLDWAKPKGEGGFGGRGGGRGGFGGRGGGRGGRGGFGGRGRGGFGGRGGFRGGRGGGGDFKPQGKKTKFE

binding: binds
Substance: Nucleolin (NCL) (endogenous, mouse) (from UniProt P09405 1-707)
